Reference: the supplement of paper PMC6078165

Test system: MDAMB436
Assay: relative JC-1 red fluorescence (viability) vs pre-drug, coculture with fibroblast (fraction); higher = more viable cancer cells
Settings: 1 µM
Method: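 JC-1 labelled TNBC cells cocultured 1:1 (1,500 cells each) with CellTrace Violet stained primary or stromal fibroblasts in 384-well plates in FluoroBrite medium, treated with one of 42 anticancer drugs at 0.1, 1, 10 or 100 uM. JC-1 red fluorescence (mitochondrial integrity in cancer cells only) was read by plate reader every 8 h for 72 h. Values are normalised to each well's pre-drug value. The stock of one drug was tenfold lower, so its dose labels may be too high.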

CN(Cc1cnc2nc(N)nc(N)c2n1)c1ccc(C(=O)N[C@@H](CCC(=O)O)C(=O)O)cc1 [Methotrexate]
relative JC-1 red fluorescence
Settings | 8 h | 16 h | 24 h | 32 h | 40 h | 48 h | 56 h | 64 h | 72 h
coculture fibroblast: C12385 | 0.826 | 0.686 | 0.668 | 0.592 | 0.554 | 0.533 | 0.533 | 0.524 | 0.532
coculture fibroblast: H6013 | 0.8406 | 0.7083 | 0.7003 | 0.6941 | 0.6924 | 0.727 | 0.702 | 0.705 | 0.683
coculture fibroblast: H6019 | 0.737 | 0.658 | 0.63 | 0.552 | 0.519 | 0.5083 | 0.479 | 0.462 | 0.447
coculture fibroblast: H6076 | 0.759 | 0.641 | 0.665 | 0.635 | 0.631 | 0.631 | 0.6709 | 0.693 | 0.705
coculture fibroblast: H6231 | 0.778 | 0.693 | 0.653 | 0.5771 | 0.547 | 0.514 | 0.506 | 0.502 | 0.496
coculture fibroblast: HADF | 0.843 | 0.758 | 0.711 | 0.68 | 0.667 | 0.694 | 0.636 | 0.642 | 0.617
coculture fibroblast: HCFa | 0.8023 | 0.6921 | 0.659 | 0.622 | 0.594 | 0.607 | 0.543 | 0.537 | 0.483
coculture fibroblast: HCPF | 0.812 | 0.709 | 0.72 | 0.653 | 0.635 | 0.606 | 0.59081 | 0.571 | 0.555
coculture fibroblast: HHSteC | 0.833 | 0.75 | 0.722 | 0.691 | 0.697 | 0.707 | 0.652 | 0.635 | 0.597
coculture fibroblast: HMF | 0.7643 | 0.6252 | 0.6152 | 0.5764 | 0.557 | 0.526 | 0.528 | 0.523 | 0.5135
coculture fibroblast: HPFa | 0.9137 | 0.813 | 0.7764 | 0.7378 | 0.7276 | 0.7384 | 0.6739 | 0.6708 | 0.626
coculture fibroblast: HUF | 0.83575 | 0.71 | 0.665 | 0.577 | 0.519 | 0.486 | 0.465 | 0.447 | 0.438
coculture fibroblast: Hs5 | 0.799 | 0.7 | 0.6803 | 0.6232 | 0.604 | 0.568 | 0.587 | 0.573 | 0.579
coculture fibroblast: Hs27A | 0.799 | 0.704 | 0.688 | 0.667 | 0.657 | 0.736 | 0.651 | 0.656 | 0.609
coculture fibroblast: Hs343T | 0.776 | 0.644 | 0.619 | 0.579 | 0.551 | 0.52 | 0.5148 | 0.50197 | 0.5036
coculture fibroblast: WS1 | 0.792 | 0.648 | 0.6287 | 0.546 | 0.506 | 0.498 | 0.487 | 0.476 | 0.48

The reference is the same well before dosing, and untreated signal decays as well.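 Labels refer to human fibroblasts, largely primary: uterine (C12385, HUF), lung (H6013), bone (Hs27A), adrenal (HADF), skin (WS1), plus mammary HMF and breast cancer-associated Hs343T. Cancer lines are basal-like or mesenchymal-like triple-negative breast cancer. The paper counts as hits responses shifting over 3x the replicate standard deviation. The tissue of the other fibroblasts is not given here.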
